Values from PubChem BioAssay AID686938 (Drosophila RNAi Screening Center, 2013)

- Screen: 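Knock-downs reducing store-operated calcium influx in Drosophila cells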 (primary screen)
- System: Drosophila S2R+ cells
- Reagent: long dsRNA against Drosophila genes, about 0.25 µg dsRNA per well, roughly 10,000 cells
- Time to read-out: 5 days of knock-down before the calcium assay
- Treatment: thapsigargin (SERCA pump blocker) to empty calcium stores; entry signal taken 4 min after adding it
- Detection: 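Duplicate raw fluo-4 intensities per well from a plate reader, at rest and four minutes after thapsigargin emptied calcium stores; entry-to-rest ratio filled for only some wells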
- Direction: calcium entry signal: higher = stronger calcium signal after store depletion; resting calcium signal: higher = higher resting calcium signal
- Active means: 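Hit if the duplicate-averaged plate z-score for entry over resting signal is under −3; wells with weak total dye signal (Fmax z < −2) or more than 5 off-targets removed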
- Calls: active = strongly reduced calcium entry; inactive = no strong reduction
In all, the deposit lists about 23,000 reagents; below is a random part of those with a known target gene and a result. In the full data, 75 (0.33%) got an active call. 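Raw plate signals without normalisation; calls rest on plate z-scores that were not deposited; ratio present for only 364 wells.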 Unmarked entries are inactive. The numbers tell different reagents against one gene apart. Not given: the dose of the treatment.

Against mEFTu1, the values are calcium entry signal, replicate 1 (fluorescence units) = 2.80e7; calcium entry signal, replicate 2 (fluorescence units) = 3.45e7; resting calcium signal, replicate 1 (fluorescence units) = 1.23e7; resting calcium signal, replicate 2 (fluorescence units) = 1.60e7.
Against Uvrag, the entry reads calcium entry signal, replicate 1 (fluorescence units) = 4.21e7; resting calcium signal, replicate 1 (fluorescence units) = 2.23e7.
Against Ice2 the deposit lists calcium entry signal, replicate 1 (fluorescence units) = 4.57e7; calcium entry signal, replicate 2 (fluorescence units) = 3.93e7; resting calcium signal, replicate 1 (fluorescence units) = 1.92e7; resting calcium signal, replicate 2 (fluorescence units) = 1.55e7.
Silencing of CG9926 resulted in: calcium entry signal, replicate 1 (fluorescence units) = 3.18e7; calcium entry signal, replicate 2 (fluorescence units) = 3.67e7; resting calcium signal, replicate 1 (fluorescence units) = 1.42e7; resting calcium signal, replicate 2 (fluorescence units) = 1.64e7.
Knock-down of Syn1 #1 gave: calcium entry signal, replicate 1 (fluorescence units) = 3.33e7; calcium entry signal, replicate 2 (fluorescence units) = 4.76e7; resting calcium signal, replicate 1 (fluorescence units) = 1.62e7; resting calcium signal, replicate 2 (fluorescence units) = 2.26e7.
After knock-down of Syn1 #2, the record shows calcium entry signal, replicate 1 (fluorescence units) = 3.31e7; calcium entry signal, replicate 2 (fluorescence units) = 5.32e7; resting calcium signal, replicate 1 (fluorescence units) = 1.56e7; resting calcium signal, replicate 2 (fluorescence units) = 2.38e7.
Against CG2663, the entry reads calcium entry signal, replicate 1 (fluorescence units) = 6.48e7; calcium entry signal, replicate 2 (fluorescence units) = 5.21e7; resting calcium signal, replicate 1 (fluorescence units) = 2.54e7; resting calcium signal, replicate 2 (fluorescence units) = 2.36e7.
Or23a gave calcium entry signal, replicate 1 (fluorescence units) = 3.53e7; calcium entry signal, replicate 2 (fluorescence units) = 3.55e7; resting calcium signal, replicate 1 (fluorescence units) = 1.70e7; resting calcium signal, replicate 2 (fluorescence units) = 1.65e7.
Against yellow-d, the values are calcium entry signal, replicate 1 (fluorescence units) = 3.14e7; calcium entry signal, replicate 2 (fluorescence units) = 3.35e7; resting calcium signal, replicate 1 (fluorescence units) = 1.68e7; resting calcium signal, replicate 2 (fluorescence units) = 1.50e7.
With knock-down of CG8180 #1, the screen gave calcium entry signal, replicate 1 (fluorescence units) = 2.88e7; calcium entry signal, replicate 2 (fluorescence units) = 2.87e7; resting calcium signal, replicate 1 (fluorescence units) = 1.33e7; resting calcium signal, replicate 2 (fluorescence units) = 1.41e7.
For CG8180 #2 the deposit lists calcium entry signal, replicate 1 (fluorescence units) = 3.74e7; calcium entry signal, replicate 2 (fluorescence units) = 3.06e7; resting calcium signal, replicate 1 (fluorescence units) = 1.81e7; resting calcium signal, replicate 2 (fluorescence units) = 1.40e7.
Against CG7006 the deposit lists calcium entry signal, replicate 1 (fluorescence units) = 2.85e7; calcium entry signal, replicate 2 (fluorescence units) = 2.56e7; resting calcium signal, replicate 1 (fluorescence units) = 1.52e7; resting calcium signal, replicate 2 (fluorescence units) = 1.29e7.
With knock-down of X11Lbeta #1, the record shows calcium entry signal, replicate 1 (fluorescence units) = 4.45e7; calcium entry signal, replicate 2 (fluorescence units) = 5.54e7; resting calcium signal, replicate 1 (fluorescence units) = 2.00e7; resting calcium signal, replicate 2 (fluorescence units) = 2.59e7.
With knock-down of X11Lbeta #2, the screen gave calcium entry signal, replicate 1 (fluorescence units) = 4.30e7; calcium entry signal, replicate 2 (fluorescence units) = 5.78e7; resting calcium signal, replicate 1 (fluorescence units) = 1.99e7; resting calcium signal, replicate 2 (fluorescence units) = 2.51e7.
CG30339 scored calcium entry signal, replicate 1 (fluorescence units) = 3.33e7; calcium entry signal, replicate 2 (fluorescence units) = 5.22e7; resting calcium signal, replicate 1 (fluorescence units) = 1.56e7; resting calcium signal, replicate 2 (fluorescence units) = 2.26e7.

Entries listed so far whose target name starts with S or s:
Syn1 #1 → calcium entry signal, replicate 1 (fluorescence units): 3.33e7; calcium entry signal, replicate 2 (fluorescence units): 4.76e7; resting calcium signal, replicate 1 (fluorescence units): 1.62e7; resting calcium signal, replicate 2 (fluorescence units): 2.26e7
Syn1 #2 → calcium entry signal, replicate 1 (fluorescence units): 3.31e7; calcium entry signal, replicate 2 (fluorescence units): 5.32e7; resting calcium signal, replicate 1 (fluorescence units): 1.56e7; resting calcium signal, replicate 2 (fluorescence units): 2.38e7

The list goes on:
After knock-down of Elba1, the screen gave calcium entry signal, replicate 1 (fluorescence units) = 2.61e7; calcium entry signal, replicate 2 (fluorescence units) = 2.50e7; resting calcium signal, replicate 1 (fluorescence units) = 1.29e7; resting calcium signal, replicate 2 (fluorescence units) = 1.22e7.
Against CG1801, the entry reads calcium entry signal, replicate 1 (fluorescence units) = 4.53e7; calcium entry signal, replicate 2 (fluorescence units) = 4.63e7; resting calcium signal, replicate 1 (fluorescence units) = 2.43e7; resting calcium signal, replicate 2 (fluorescence units) = 1.94e7.
Silencing of CG13077 resulted in: calcium entry signal, replicate 1 (fluorescence units) = 4.16e7; calcium entry signal, replicate 2 (fluorescence units) = 4.99e7; resting calcium signal, replicate 1 (fluorescence units) = 2.09e7; resting calcium signal, replicate 2 (fluorescence units) = 2.24e7.
Silencing of CG34198 resulted in: calcium entry signal, replicate 1 (fluorescence units) = 2.72e7; calcium entry signal, replicate 2 (fluorescence units) = 3.14e7; resting calcium signal, replicate 1 (fluorescence units) = 1.37e7; resting calcium signal, replicate 2 (fluorescence units) = 1.58e7.
Depletion of CG1888 gave: calcium entry signal, replicate 1 (fluorescence units) = 3.80e7; calcium entry signal, replicate 2 (fluorescence units) = 4.13e7; resting calcium signal, replicate 1 (fluorescence units) = 1.78e7; resting calcium signal, replicate 2 (fluorescence units) = 1.85e7.
After knock-down of Cpr97Eb the results were calcium entry signal, replicate 1 (fluorescence units) = 3.66e7; calcium entry signal, replicate 2 (fluorescence units) = 5.33e7; resting calcium signal, replicate 1 (fluorescence units) = 1.86e7; resting calcium signal, replicate 2 (fluorescence units) = 2.11e7.
After knock-down of prim the results were calcium entry signal, replicate 1 (fluorescence units) = 4.19e7; calcium entry signal, replicate 2 (fluorescence units) = 4.79e7; resting calcium signal, replicate 1 (fluorescence units) = 1.73e7; resting calcium signal, replicate 2 (fluorescence units) = 2.20e7.
With knock-down of CG10934, the screen gave calcium entry signal, replicate 1 (fluorescence units) = 3.10e7; calcium entry signal, replicate 2 (fluorescence units) = 2.83e7; resting calcium signal, replicate 1 (fluorescence units) = 1.46e7; resting calcium signal, replicate 2 (fluorescence units) = 1.45e7.
Against CG31418, the entry reads calcium entry signal, replicate 1 (fluorescence units) = 4.05e7; calcium entry signal, replicate 2 (fluorescence units) = 3.91e7; resting calcium signal, replicate 1 (fluorescence units) = 2.41e7; resting calcium signal, replicate 2 (fluorescence units) = 1.82e7.
Silencing of Oatp33Eb gave: calcium entry signal, replicate 1 (fluorescence units) = 4.16e7; calcium entry signal, replicate 2 (fluorescence units) = 2.90e7; resting calcium signal, replicate 1 (fluorescence units) = 1.81e7; resting calcium signal, replicate 2 (fluorescence units) = 1.37e7.
Knock-down of Cpr gave: calcium entry signal, replicate 1 (fluorescence units) = 5.26e7; resting calcium signal, replicate 1 (fluorescence units) = 2.41e7.
Depletion of Vm26Ac gave: calcium entry signal, replicate 1 (fluorescence units) = 3.43e7; calcium entry signal, replicate 2 (fluorescence units) = 3.91e7; resting calcium signal, replicate 1 (fluorescence units) = 1.72e7; resting calcium signal, replicate 2 (fluorescence units) = 1.71e7.
